## Screening data, single-dose tests

Source: ChEMBL document CHEMBL3988442, “University of Dundee, Small-Polar-MMV Screening Library” (2021).

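Growth of Mycobacterium tuberculosis over 3 days (7H9 medium with glucose and tyloxapol); the read-out is not stated. Concentration: 500 µM. The record gives no direction; compounds that gave an IC50 in retests scored well above the rest, so higher reads as more growth inhibition. Of about 18,000 compounds tested this way, about 1,400 (7.9%) reached 50% or more in at least one test.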

Each number is a percent effect as filed.
The record does not define 0% and 100%; most values in the screen are far below 50% and negative numbers occur (in some assays of this library far below -100).
Compounds were drawn at random from those tested, without regard to their results.

| SMILES | percent effect |
|---|---|
| `CS(=O)(=O)NCCc1nc2c(s1)CCCC2` | 25.12% |
| `Cc1nn(C)cc1C(=O)N1CCOC2(CCCC2)C1` | 10.39% |
| `CC(C)OCCCNC(=O)C1(S(C)(=O)=O)CC1` | 1.756% |
| `O=C(CS(=O)(=O)Cc1ccccc1)Nc1nccs1` | 13.57% |
| `CN(CCc1ccccn1)CC(=O)NCc1ccco1` | 27.44% |
| `CC(Oc1cccc(Br)c1)C(=O)NN1CCOCC1` (centres undefined) | 5.684% |
| `COCC1CCN(C(=O)CCC2CCNCC2)CC1` | 4.065% |
| `CC1(c2ccccc2)CN(C(=O)c2cc[nH]n2)CCO1` (centres undefined) | 23.19% |
| `N#Cc1ccccc1CN1CCC2(CC1)[C@H](O)C[C@@H]2O` | -1.407% |
| `CCNS(=O)(=O)C1CCN(Cc2cc(F)cc(F)c2)C1` (centres undefined) | -4.193% |
| `CNC(=O)[C@@H](C)Nc1nc(-c2ccccc2)ns1` | 34.71% |
| `CN1N=C(C(N)=O)CCC1=O` | -5.552% |
| `NCc1cccc(NC(=O)NC2CCOCC2)c1` | 7.306% |
| `N#Cc1cccnc1NCC1COc2ccccc2O1` (centres undefined) | -16.59% |
| `CCC1CN(Cc2ccno2)CCS1` (centres undefined) | -10.63% |
| `CC1CN(S(=O)(=O)c2ccc(C#N)c(Cl)c2)CCO1` (centres undefined) | -4.79% |
| `NC(=O)C1CCN(c2ccnc3ccc(Cl)cc23)C1` (centres undefined) | -4.565% |
| `Cc1cncc(CNC(=O)N2CCSCCC2C)c1` (centres undefined) | 0.3671% |
| `Cn1nc(-c2ccsc2)cc1N` | 8.727% |
| `CSc1cncc(NCCC(=O)N2CCCC2)n1` | 62.57% |
| `CCCNC1CCS(=O)(=O)C1` (centres undefined) | 1.829% |
| `NCCc1nnc(N)s1` | -5.173% |
| `NC(=O)CN1CCCC1c1ccsc1` (centres undefined) | 23.94% |
| `NC(=O)CN1CCCC1CCc1ccccc1` (centres undefined) | 29.21% |
| `CCOc1cc(CN)ccc1OC(F)F` | 43.8% |
| `COc1ccc(C)cc1C(C)O` (centres undefined) | 4.602% |
| `CC(C)(C)OCCOc1nnc2ccccn12` | 13.29% |
| `CCOCC(=O)Nc1ccc2c(c1)CCN2C(C)=O` | 33.08% |
| `COc1cccc(C(=O)Nc2ccnn2C(C)C)c1` | 53.41% |
| `CN(C)CCOC1CCCNC1` (centres undefined) | -6.304% |
| `Nc1ccc(CN2CCCCC2)cn1` | -5.173% |
| `COCCn1nc(C(=O)Nc2ncc(C)s2)ccc1=O` | -20.92% |
| `NCCn1cc(C(F)(F)F)ccc1=O` | 7.452% |
| `Cn1nccc1CNC1CC1` | 3.378% |
| `Cc1cccnc1NC(=O)CCc1cnn(C)c1` | -41.06% |
| `NCC1CCSCC1` | 3.875% |
| `NCc1ccc(-c2ccco2)o1` | 26.34% |
| `Cn1c(=O)n(CC(=O)NC2CC2)c2ccccc21` | 4.41% |
| `N#CC1CCCN(CCC(=O)Nc2cccnc2)C1` (centres undefined) | -14.77% |
| `NS(=O)(=O)N1CCCN(Cc2ccccc2)CC1` | -0.8847% |
| `Cn1cc(C(=O)N2CCc3ccc(Br)cc32)ccc1=O` | 5.681% |
| `CN(C)C(=O)CS(=O)(=O)Cc1ccccc1C(F)(F)F` | 13.2% |
| `CN(C)C1CN(S(=O)(=O)Cc2cccc(F)c2)C1` | 14.78% |
| `CC(C)OCc1nnc(C(C)N)o1` (centres undefined) | -0.3685% |
| `Cc1c(S(=O)(=O)N2CCC(N)CC2)cnn1C` | 9.221% |
| `Cc1cn2c(n1)CCC(NC(=O)COCC(F)(F)F)C2` (centres undefined) | 11.06% |
| `CCCNC(=O)CSCc1nc(-c2ccccc2)no1` | 80.63% |
| `NC(=O)c1ccc(S(=O)(=O)N2CCNCC2)o1` | 6.372% |
| `O=S(=O)(NCCO)N1CCNCC1` | -2.608% |
| `COCc1noc(CCNC(=O)[C@H]2CCC[C@H](O)C2)n1` | -1.582% |
| `NS(=O)(=O)CC1CCN(Cc2nc(C3CC3)no2)CC1` | 7.126% |
| `CC(NC(=O)Nc1cccnn1)c1ccncc1` (centres undefined) | 12.29% |
| `CNCC1COc2ccccc2O1` (centres undefined) | 7.353% |
| `CCN(CCO)Cc1cc(-c2cccs2)on1` | 50.04% |
| `CC(C)(C)C(=O)N1CCN(CCCC#N)CC1` | -1.287% |
| `Cc1noc(C)c1CCC(=O)NCC1CCS(=O)(=O)C1` (centres undefined) | -7.899% |

Some entries from above, unchanged:

SMILES	percent effect
NS(=O)(=O)N1CCCN(Cc2ccccc2)CC1	-0.8847%
COCC1CCN(C(=O)CCC2CCNCC2)CC1	4.065%
NC(=O)C1CCN(c2ccnc3ccc(Cl)cc23)C1 (centres undefined)	-4.565%
NCCc1nnc(N)s1	-5.173%
CCNS(=O)(=O)C1CCN(Cc2cc(F)cc(F)c2)C1 (centres undefined)	-4.193%
CCCNC1CCS(=O)(=O)C1 (centres undefined)	1.829%